About 2,100 (0.66%) of roughly 320,000 compounds were called active. This list was built around the results that the source calls inconclusive (neither active nor inactive); the mix of calls is not that of the screen. Calls follow the shape of the dose curve; as a rule, active = well fitted inhibition curve with a large enough effect in the signal ratio, with a control signal flat (not every such curve was filed as active); inconclusive = small, poorly fitted or top-dose-only effect, or effect the other way, or a change in a side signal; inactive = flat fitted curve, though single readings scatter; the % refers to the signal ratio. Potencies of inconclusive entries are doubtful fits and often do not repeat.
Assay: qHTS Assay for Lipid Storage Modulators in Drosophila S3 Cells
Conditions: BODIPY lipid droplet fluorescence, 18-24 h, cells fed with added oleic acid; lipid storage change, negative = inhibition: at 46.1 µM (top of the series) unless noted
Summary of the method: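 Drosophila S3 cells loaded with oleic acid (400 uM, as added) and compounds at several concentrations; lipid droplets imaged by 488-nm laser-scanning cytometry, 500–530 nm intensity and object ratio to cell channel. Percent activity normalized to 20 uM Triacsin C.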
With `O=C(CCl)c1cc2c3c(c1)CC(=O)N3CCC2` the lipid storage change, negative = inhibition was inconclusive: -13.4%. In the case of `Cc1ccc(-n2nnnc2SCC(N)=O)c(C)c1`, the lipid storage change, negative = inhibition is reported as inconclusive: 10.7%. In the case of `Cc1n[nH]c(=S)n1-c1ccccc1`, the lipid storage change, negative = inhibition is reported as “inactive”. With `CCOC(=O)C1CCN(C(=O)COC(=O)c2oc3ccccc3c2C)CC1` the Potency was inconclusive: 29.1 µM [falling, single point]. With `O=C(O)CCCCCN1C(=O)/C(=C\c2ccncc2)SC1=S` the Potency was active: 3.26 µM. In the case of `O=C(Nc1ccc(NC(=O)C2CCCCC2)cn1)c1ccco1`, the lipid storage change, negative = inhibition is reported as inconclusive: 1.98%. For `O=C(O)c1ccc(NC(=O)c2cn(-c3ccccc3)nc2-c2ccc(Cl)cc2)cc1`, the lipid storage change, negative = inhibition was inconclusive: 5.8%. For `Cn1c(Cn2nnc3ccccc32)nnc1SCC(=O)N1c2ccccc2Sc2ccccc21`, the lipid storage change, negative = inhibition was inconclusive: -35.7%. With `CN(CC(=O)Nn1cnnc1)S(=O)(=O)c1ccccc1` the Potency was inconclusive: 0.231 µM [falling, full curve, poor fit]. For `COc1ccc(CCNC(=O)COC(=O)/C=C/c2cccs2)cc1OC`, the lipid storage change, negative = inhibition was inconclusive: -36.4%. With `O=S(=O)(c1cccc2cccnc12)N1CCOCC1` the lipid storage change, negative = inhibition was inconclusive: 7.24%. With `CN(Cc1nccs1)C(=O)c1cc(COc2cccc3cnccc23)on1` the Potency was inconclusive: 5.8 µM [falling, single point]. With `COC(=O)COc1ccc(S(=O)(=O)Nc2ccc(NC(C)=O)cc2)cc1C` the lipid storage change, negative = inhibition was inconclusive: -12.8%. With `CCN1CCN(C(c2cccs2)C(C)NC(=O)NC2CCCCC2)CC1` (stereo not drawn) the lipid storage change, negative = inhibition was inconclusive: 4.14%. In the case of `O=C(CCc1ccccc1F)N1CCN(c2ccccc2)CC1`, the lipid storage change, negative = inhibition is reported as inconclusive: 17.8%. With `CC1(C)CC2CC(C)(CN2S(=O)(=O)c2cccc(C(=O)OCC(N)=O)c2)C1` (stereo not drawn) the lipid storage change, negative = inhibition was inconclusive: 7.89%. For `CCOC(=O)C1=C(COC(=O)c2ccco2)NC(=O)NC1CC` (stereo not drawn), the Potency was inconclusive: 16.4 µM [falling, single point]. With `CC(C)Nc1nc2n(c(=O)n1)CCN2C(C)C` the Potency was active: 4.11 µM. With `O=C(OCCN1CCCC1=O)c1cc(F)c(F)c(F)c1F` the Potency was inconclusive: 18.4 µM [falling, partial curve]. In the case of `CC(=O)Nc1cccc(NC(=O)c2ccc(COc3ccccc3)cc2)c1`, the lipid storage change, negative = inhibition is reported as inconclusive: 163%. For `COc1cccc(CC2(CO)CCN(Cc3ccc4cccc(F)c4n3)CC2)c1`, the lipid storage change, negative = inhibition was inconclusive: 16.4%. With `O=C(CSc1nnc(Cc2cc(=O)[nH]c(=O)[nH]2)n1-c1ccc(F)cc1)N1CCCCC1` the lipid storage change, negative = inhibition was inconclusive: 54.2% [activator]. For `CCN(C(=O)COC(=O)CNC(=O)c1ccc(C)cc1)c1c(N)n(Cc2ccccc2)c(=O)[nH]c1=O`, the Potency was inconclusive: 0.731 µM [falling, single point].

— PubChem BioAssay AID2685 (National Center for Advancing Translational Sciences (NCATS), 2010)
% is scaled to controls: 0 for no effect and ±100 for the full control effect; potency is read from the fitted curve at half-maximal effect.
